Measurements reported in PubChem BioAssay AID1159578 (Peter MacCallum Cancer Centre, 2015).
Shown is one part, drawn at random, of about 18,000 deposited reagents. About 1,030 of them (5.7%) were called active. 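Inactive calls also include pools with fewer than 3300 nuclei, whose migration was not assessed.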 Raw values vary from plate to plate and are shown uncorrected. Entries without a mark were called inactive. Not all columns of the deposit are shown.

- Test: 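Knock-downs that alter how fast lymphatic endothelial cells migrate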 (primary screen)
- Cells: human lymphatic endothelial cells
- Knock-down reagent: siRNA pool against human genes, 40 nM
- Duration: 48 h after transfection
- Measurement: 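High-content imaging of dye-stained cells in a scratch assay measures filled wound area and nuclei per well; duplicate means given as ratio to mock and robust z-score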
- Reading the numbers: migration robust z-score: higher = faster migration into the scratch; nuclei per well: higher = more cells in the well
- Active means: 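Pools averaging fewer than 3300 nuclei are never called; remaining pools count as changed when migration robust z lies outside -2 to 2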
- Calls: active = migration changed; inactive = no migration change, or too few cells

The opening 2 entries, ahead of the listing:
| Target gene | migration robust z-score | nuclei per well, duplicate mean |
| --- | --- | --- |
| ONECUT3 | 1.92 | 6370 |
| E2F4 | 1.38 | 6812 |

The list itself, repeating the preview:
| Target gene | migration robust z-score | nuclei per well, duplicate mean |
| --- | --- | --- |
| ONECUT3 | 1.92 | 6370 |
| E2F4 | 1.38 | 6812 |
| ABO | 1.02 | 6172 |
| TMEM143 | 0 | 5940 |
| DEK | 0.7 | 5010 |
| SEC61A2 | 0.24 | 5834 |
| IFNL1 | -0.18 | 5496 |
| PLEKHA8 | -0.88 | 5684 |
| RNF151 | -1.4 | 3891 |
| WRAP73 | 0.44 | 5922 |
| LRFN5 | -0.26 | 6726 |
| DUSP18 | 0.78 | 5722 |
| ZNF444 | -0.46 | 5109 |
| LRP1B | -0.88 | 6603 |
| PRDM16 | 1.64 | 6500 |
| MMP10 | 0.36 | 5350 |
| IL12B | -0.46 | 7101 |
| BST1 | -0.16 | 4632 |
| PHACTR3 | 0.43 | 5689 |
| HBB | 0.16 | 6336 |
| STAT1 | 0.21 | 4918 |
| LINC02897 | 1.44 | 6241 |
| ZNF205 | -0.6 | 5814 |
